Results deposited as PubChem BioAssay AID1259308 (NCATS, 2017).
Aim: 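Genes whose loss raises luciferase production in HEK293 cells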 (primary screen). System: human HEK293 embryonic kidney cells stably expressing firefly luciferase (HEK-CMV-Luc2-Hygro). Reagents: single siRNA against human genes, 0.8 pmol siRNA per well. Time to read-out: 72 h. Read-out: 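Luciferase light (ONE-Glo) measured on one replicate plate set and viability (CellTiter-Glo) on the other, scaled to a negative control siRNA, with robust z-scores and luciferase per cell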. Scale: total luciferase, z-score and total luciferase, % of control: higher = more reporter protein produced. Rule for the call: 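Active when the median/MAD z-score for overall luciferase is greater than 3; a gene was taken forward for validation with new siRNAs if at least two of its three siRNAs passed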. Calls: active = raised luciferase; inactive = no rise.
In all, the deposit lists about 59,000 reagents; below is an unselected part. Over the whole deposit, about 1,510 (2.6%) are marked active. 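Calls use total luciferase alone and ignore viability, so some active siRNAs may act by altering cell number.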 A number with no mark means an inactive call. Reagents against one gene are numbered here. Not all columns of the deposit are shown.

Target gene,reagent,"total luciferase, z-score","total luciferase, % of control"
OR2G3 (olfactory receptor family 2 subfamily G member 3),1,0.152,84.9
OR2G3 (olfactory receptor family 2 subfamily G member 3),2,-0.75,67
OR2G3 (olfactory receptor family 2 subfamily G member 3),3,0.636,94.5
VAMP8 (vesicle associated membrane protein 8),1,0.225,86.4
VAMP8 (vesicle associated membrane protein 8),2,0.0996,83.9
VAMP8 (vesicle associated membrane protein 8),3,0.0325,82.5
PPP2R3A (protein phosphatase 2 regulatory subunit B''alpha),1,2.81,138
PPP2R3A (protein phosphatase 2 regulatory subunit B''alpha),2,0.00507,82
PPP2R3A (protein phosphatase 2 regulatory subunit B''alpha),3,1.23,106
TAB2 (TGF-beta activated kinase 1 (MAP3K7) binding protein 2),1,-0.00535,81.8
TAB2 (TGF-beta activated kinase 1 (MAP3K7) binding protein 2),2,-0.731,67.3
TAB2 (TGF-beta activated kinase 1 (MAP3K7) binding protein 2),3,1.79,118
HMCN1 (hemicentin 1),1,0.0895,83.7
HMCN1 (hemicentin 1),2,-0.777,66.4
HMCN1 (hemicentin 1),3,-0.673,68.5
AKT1 (AKT serine/threonine kinase 1),1,-1.23,57.5
AKT1 (AKT serine/threonine kinase 1),2,2.11,124
AKT1 (AKT serine/threonine kinase 1),3,-0.35,74.9
HK1 (hexokinase 1),1,0.363,89.1
HK1 (hexokinase 1),2,-0.0276,81.3
HK1 (hexokinase 1),3,1.84,118
LMX1B (LIM homeobox transcription factor 1 beta),1,1.18,105
LMX1B (LIM homeobox transcription factor 1 beta),2,0.855,98.9
LMX1B (LIM homeobox transcription factor 1 beta),3,0.264,87.1
VSIG4 (V-set and immunoglobulin domain containing 4),1,-0.562,70.7
VSIG4 (V-set and immunoglobulin domain containing 4),2,2.01,122
VSIG4 (V-set and immunoglobulin domain containing 4),3,1.55,113
SAP30L (SAP30 like),1,-0.559,70.8
SAP30L (SAP30 like),2,0.00214,81.9
SAP30L (SAP30 like),3,0.69,95.6
SMAD6 (SMAD family member 6),1,-1.05,61.1
SMAD6 (SMAD family member 6),2,0.444,90.7
SMAD6 (SMAD family member 6),3,-1.55,51.1
CDH22 (cadherin 22),1,-0.033,81.2
CDH22 (cadherin 22),2,0.767,97.1
CDH22 (cadherin 22),3,0.0852,83.6
LOC649294 (retired record),1,1.51,112
LOC649294 (retired record),2,-0.425,73.4
LOC649294 (retired record),3,0.22,86.3
"ALKBH2 (alkB homolog 2, alpha-ketoglutarate dependent dioxygenase)",1,0.26,87.1
"ALKBH2 (alkB homolog 2, alpha-ketoglutarate dependent dioxygenase)",2,0.837,98.5
"ALKBH2 (alkB homolog 2, alpha-ketoglutarate dependent dioxygenase)",3,0.491,91.6
LGI1 (leucine rich glioma inactivated 1),1,2.32,128
LGI1 (leucine rich glioma inactivated 1),2,0.494,91.7
LGI1 (leucine rich glioma inactivated 1),3,-0.284,76.2
ITGA4 (integrin subunit alpha 4),1,-1.11,59.8
ITGA4 (integrin subunit alpha 4),2,0.762,97
ITGA4 (integrin subunit alpha 4),3,0.786,97.5
BFSP1 (beaded filament structural protein 1),1,-0.268,76.5
BFSP1 (beaded filament structural protein 1),2,0.374,89.3
BFSP1 (beaded filament structural protein 1),3,-0.291,76.1
PRRT4 (proline rich transmembrane protein 4),1,-0.751,66.9
PRRT4 (proline rich transmembrane protein 4),2,0.934,100
PRRT4 (proline rich transmembrane protein 4),3,1.64,114
LINC01104 (long independently transcribed non-coding RNA 1104),1,0.381,89.5
LINC01104 (long independently transcribed non-coding RNA 1104),2,0.26,87.1
LINC01104 (long independently transcribed non-coding RNA 1104),3,-2.33,35.6

Just “total luciferase, z-score” (4 entries from above):
ALKBH2 (alkB homolog 2, alpha-ketoglutarate dependent dioxygenase) #2	0.837
ALKBH2 (alkB homolog 2, alpha-ketoglutarate dependent dioxygenase) #3	0.491
LGI1 (leucine rich glioma inactivated 1) #1	2.32
LGI1 (leucine rich glioma inactivated 1) #2	0.494
